# Laboratory results: publication PMC11997035
# Sequences of proteins named here, by UniProt entry; tags and fusion partners are left off. Residues count along the entry.
# UniProt Q15836: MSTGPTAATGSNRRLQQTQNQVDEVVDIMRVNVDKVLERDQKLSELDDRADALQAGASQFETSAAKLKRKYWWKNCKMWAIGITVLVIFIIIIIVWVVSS
# UniProt P61006: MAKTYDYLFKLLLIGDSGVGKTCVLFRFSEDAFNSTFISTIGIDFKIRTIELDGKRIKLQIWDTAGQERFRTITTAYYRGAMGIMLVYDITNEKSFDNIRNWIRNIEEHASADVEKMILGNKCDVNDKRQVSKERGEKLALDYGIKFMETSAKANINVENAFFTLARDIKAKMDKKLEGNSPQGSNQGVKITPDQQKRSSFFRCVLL
# UniProt P04439, residues 25-365: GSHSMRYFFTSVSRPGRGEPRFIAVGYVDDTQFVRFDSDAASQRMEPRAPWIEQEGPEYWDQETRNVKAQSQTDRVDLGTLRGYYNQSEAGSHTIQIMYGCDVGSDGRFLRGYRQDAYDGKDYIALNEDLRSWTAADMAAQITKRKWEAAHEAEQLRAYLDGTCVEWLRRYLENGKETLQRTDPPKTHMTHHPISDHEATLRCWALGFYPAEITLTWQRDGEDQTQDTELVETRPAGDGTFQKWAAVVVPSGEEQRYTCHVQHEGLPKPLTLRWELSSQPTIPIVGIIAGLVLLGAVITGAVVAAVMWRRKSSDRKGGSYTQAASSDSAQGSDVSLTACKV
# No constants are given. Whether binding was seen depends on the method and setting. Binding seen in cells or lysates may run through a third protein. Here binding means that the protein was enriched with, or labelled near, the bait; the list need not be complete. For some assays here: Sequences can lack the tags named with a protein.
# T1: CD73 (bait for binding partners in TNBC cells) (human) (UniProt P21589)
# T1 sequence: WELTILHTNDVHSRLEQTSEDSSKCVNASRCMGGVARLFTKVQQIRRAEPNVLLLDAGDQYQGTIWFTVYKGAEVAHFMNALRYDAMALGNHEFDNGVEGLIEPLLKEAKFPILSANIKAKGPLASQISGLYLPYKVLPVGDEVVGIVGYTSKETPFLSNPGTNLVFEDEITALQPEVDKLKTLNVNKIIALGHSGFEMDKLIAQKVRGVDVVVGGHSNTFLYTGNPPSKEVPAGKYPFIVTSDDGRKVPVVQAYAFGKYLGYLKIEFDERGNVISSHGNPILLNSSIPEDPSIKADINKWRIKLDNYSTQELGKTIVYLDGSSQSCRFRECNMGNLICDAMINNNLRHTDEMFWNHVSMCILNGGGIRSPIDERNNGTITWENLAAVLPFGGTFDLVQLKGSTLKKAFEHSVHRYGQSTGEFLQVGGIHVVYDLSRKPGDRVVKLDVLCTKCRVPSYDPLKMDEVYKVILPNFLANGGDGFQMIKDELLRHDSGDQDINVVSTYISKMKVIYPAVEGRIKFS
# T2: Flag-HA-tagged hMGAT1 (human) (UniProt P26572)
# T2 sequence: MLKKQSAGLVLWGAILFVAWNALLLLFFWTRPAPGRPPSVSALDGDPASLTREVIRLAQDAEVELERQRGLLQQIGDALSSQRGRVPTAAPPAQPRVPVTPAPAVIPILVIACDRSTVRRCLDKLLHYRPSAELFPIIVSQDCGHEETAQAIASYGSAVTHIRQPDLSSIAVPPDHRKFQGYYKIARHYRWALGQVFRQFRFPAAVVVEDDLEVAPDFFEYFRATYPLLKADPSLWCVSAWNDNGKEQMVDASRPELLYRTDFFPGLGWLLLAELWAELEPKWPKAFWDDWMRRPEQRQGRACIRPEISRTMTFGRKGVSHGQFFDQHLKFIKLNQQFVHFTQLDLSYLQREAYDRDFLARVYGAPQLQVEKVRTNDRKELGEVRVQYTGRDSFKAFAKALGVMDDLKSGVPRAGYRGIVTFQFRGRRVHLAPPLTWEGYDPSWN
# B1: RAB13 (protein, UniProt P51153 1-203)
# chain: MAKAYDHLFKLLLIGDSGVGKTCLIIRFAEDNFNNTYISTIGIDFKIRTVDIEGKKIKLQVWDTAGQERFKTITTAYYRGAMGIILVYDITDEKSFENIQNWMKSIKENASAGVERLLLGNKCDMEAKRKVQKEQADKLAREHGIRFFETSAKSSMNVDEAFSSLARDILLKSGGRRSGNGNKPPSTDLKTCDKKNTNKCSLG
# Key:
# [1] = target: T1, CD73 (bait for binding partners in TNBC cells) (human); experiment: affinity purification with mass spectrometry; mass spectrometry of CD73 binding partners in TNBC cells
# [2] = target: T2, Flag-HA-tagged hMGAT1 (human); experiment: affinity purification with mass spectrometry; Flag/HA-MGAT1 from MDA-MB468 lysate (1% NP-40 buffer) on Flag-M2 beads, washed with TBST, eluted with 3 × Flag peptide; WT MDA-MB468 as control
binding [1],binding [2],Molecule
binds,–,VAMP3 (from UniProt Q15836 1-100)
binds,–,RAB8A (from UniProt P61006 1-207)
–,binds,HLA-A (from UniProt P04439 25-365)
–,binds,HLA-B (from UniProt P01889 25-362)
binds,–,B1
